The source of these data is patent US20180344808A1, “HAPTOGLOBIN DERIVATIVE FOR TREATMENT OF SEPSIS AND ACETAMINOPHEN-INDUCED LIVER DAMAGE” (THE FEINSTEIN INSTITUTE FOR MEDICAL RESEARCH, priority 2017, published 2018).

Protein sequences, listed by entry. Tags and fused reporters are not part of them. Lines headed by an entry give the natural chain unless they say otherwise; changes in a name come on top. Residues count along the entry.
UniProt P09429: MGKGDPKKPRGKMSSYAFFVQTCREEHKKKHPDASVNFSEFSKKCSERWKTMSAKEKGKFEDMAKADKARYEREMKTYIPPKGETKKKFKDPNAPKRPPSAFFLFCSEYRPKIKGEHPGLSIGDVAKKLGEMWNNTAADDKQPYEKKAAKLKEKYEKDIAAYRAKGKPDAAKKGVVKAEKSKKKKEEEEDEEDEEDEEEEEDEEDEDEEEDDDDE
UniProt P63159, residues 2-215: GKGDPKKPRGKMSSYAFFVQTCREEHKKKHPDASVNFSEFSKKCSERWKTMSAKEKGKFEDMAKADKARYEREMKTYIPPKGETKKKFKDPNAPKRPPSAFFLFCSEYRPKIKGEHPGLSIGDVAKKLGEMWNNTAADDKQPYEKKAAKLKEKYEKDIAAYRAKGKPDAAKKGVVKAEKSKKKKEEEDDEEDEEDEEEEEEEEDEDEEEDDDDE
UniProt P01946: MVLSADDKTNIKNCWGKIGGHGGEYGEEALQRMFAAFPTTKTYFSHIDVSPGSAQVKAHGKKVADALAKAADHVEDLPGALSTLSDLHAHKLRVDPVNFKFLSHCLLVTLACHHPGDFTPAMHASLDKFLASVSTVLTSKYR
UniProt P02091: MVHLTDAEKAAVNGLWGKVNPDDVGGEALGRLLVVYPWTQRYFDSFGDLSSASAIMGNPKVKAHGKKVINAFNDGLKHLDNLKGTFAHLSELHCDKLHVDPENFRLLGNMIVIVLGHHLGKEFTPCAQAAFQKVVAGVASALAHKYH
UniProt P00738: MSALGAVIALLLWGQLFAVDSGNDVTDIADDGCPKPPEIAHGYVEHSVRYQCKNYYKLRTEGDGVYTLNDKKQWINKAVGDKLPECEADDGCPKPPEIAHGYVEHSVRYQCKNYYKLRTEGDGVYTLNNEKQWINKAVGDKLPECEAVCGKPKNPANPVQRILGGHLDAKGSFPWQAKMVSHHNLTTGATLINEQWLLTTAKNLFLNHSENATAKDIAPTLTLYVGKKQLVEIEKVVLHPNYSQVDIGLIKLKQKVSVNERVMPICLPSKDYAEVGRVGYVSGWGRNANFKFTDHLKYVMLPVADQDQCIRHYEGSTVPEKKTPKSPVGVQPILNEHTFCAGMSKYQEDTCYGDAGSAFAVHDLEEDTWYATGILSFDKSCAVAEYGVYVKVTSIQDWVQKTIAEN

The target of test [1] is HMGB1 (Homo sapiens (Human)) (UniProt P09429). The experiment in a line: structural functional analysis / SPR.
Test [2] concerns the target HMGB1 from the blood of septic rats (rat) (UniProt P63159). The experiment in a line: extracorporeal haptoglobin affinity chromatography.
Test [3] shares this target. Briefly: pull-down on haptoglobin-sepharose beads, extracorporeal device.
The target in test [4] is free hemoglobin from septic rats (rat) (UniProt P01946+P02091). The test is described as above.

Results are given in words; binding and its absence hold for the method and conditions named. For some of these results: Binding seen in cells or lysates may run through a third protein. Some entries that bind do so weakly or less than the wild type.

For “Haptoglobin beta subunit (human) (from UniProt P00738 162-406)”, in test [1], the binding result is on record as “binds”.

Consider “full-length haptoglobin (SEQ ID NO:2) (from UniProt P00738 19-406)”, for which the binding entry in test [2], in test [3] and in test [4] was “binds” in each case.
